For part of its entries the source gives two or more results. Only these are listed. An entry can have further records. Results that share an entry differ, and nothing given here explains why; they may come from other doses, times, organisms or constructs than stated.
Target: LPAAT-β (Homo sapiens, UniProt O15120)
Assay: secondary thin layer chromatography (TLC) assay measuring fluorescent PA
Conditions: read-out: IC50 (μM) (TLC assay)

Sequences of proteins named here, by UniProt entry; tags and fusion partners are left off. Residues count along the entry.
UniProt O15120, 24-278 limits assumed: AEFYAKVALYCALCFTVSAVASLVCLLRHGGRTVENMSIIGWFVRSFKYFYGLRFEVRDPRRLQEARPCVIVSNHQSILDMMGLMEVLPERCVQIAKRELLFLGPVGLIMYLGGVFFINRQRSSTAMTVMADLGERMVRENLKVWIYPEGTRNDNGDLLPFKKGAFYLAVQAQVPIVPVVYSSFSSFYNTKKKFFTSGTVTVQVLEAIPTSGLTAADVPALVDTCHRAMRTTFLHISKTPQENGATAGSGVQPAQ

IC50: 4.1 µM and 24 µM
SMILES: C=CCc1cc(F)cc(/C=N/NC(N)=S)c1O

Source: patent publication US20170027893A1, “THIOSEMICARBAZONES INHIBITORS OF LYSOPHOSPHATIDIC ACID ACYLTRANSFERASE AND USES THEREOF” (H. LEE CANCER CENTER AND RESEARCH INSTITUTE, INC., priority 2014, published 2017)
